Results published in patent US5504070 (dated 1996).

Legend:
[1] = general procedure: Fmoc solid-phase peptide synthesis in flow; Fmoc-Trp-AminoTech PA500; active ester (OPfp or ODhbt esters) or BOP/HOBt; conditions: whole synthesis, Area %, scale 0.32 mmole
[2] = general procedure: Fmoc solid-phase peptide synthesis in flow; AminoTech PR500; active ester (OPfp or ODhbt esters) or BOP/HOBt; conditions: whole synthesis, Area %, scale 0.43 mmole

Substance | final HPLC purity [1] | crude HPLC purity [2]
N-Acetyl-L-α-aspartyl-L-isoleucyl-L-Isoleucyl-L-tryptophan | 97.4% | 
N-Acetyl-L-α-aspartyl-L-valyI-L-asparaginyl-L-threonyl-L-prolyl-L-α-glutamine |  | 95.7%
